We go through 1 molecule from article PMC4197242.

These are yes or no findings as the source states them, for the method shown. Binding seen in cells or lysates may run through a third protein. Some binding calls cover weakened binding; strength is not graded here.

In this test the target is T1, peroxisomal PEX7 receptor (human (endogenous in SH-EP)) (UniProt O00628).
T1 sequence: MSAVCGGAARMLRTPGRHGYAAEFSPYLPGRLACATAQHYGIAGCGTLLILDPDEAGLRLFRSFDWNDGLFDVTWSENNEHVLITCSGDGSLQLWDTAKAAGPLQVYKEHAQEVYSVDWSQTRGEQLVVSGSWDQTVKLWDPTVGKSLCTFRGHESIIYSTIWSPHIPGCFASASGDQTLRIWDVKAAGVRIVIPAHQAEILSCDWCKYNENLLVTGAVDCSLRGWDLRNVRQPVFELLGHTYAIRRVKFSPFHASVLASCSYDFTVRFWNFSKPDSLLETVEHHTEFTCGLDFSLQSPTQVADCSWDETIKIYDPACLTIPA
Kind of test: co-IP; Pierce Crosslink Magnetic IP/Co-IP kit; 5 ug PEX7 antibody covalently cross-linked to 25 ul protein A/G magnetic beads, incubated with extracts of SH-EP/tetDEPP cells treated with 200 ng/ml doxy for 24 hours; low-pH elution; immunoblot for PEX7 and DEPP; beads without antibody as control (IP Ctr). (In western blotting, separated proteins are transferred to a membrane and probed.)

B1: Decidual Protein induced by Progesterone (DEPP) (protein, UniProt Q9NTK1 1-212)
chain: MRSRLLLSVAHLPTIRETTEEMLLGGPGQEPPPSPSLDDYVRSISRLAQPTSVLDKATAQGQPRPPHRPAQACRKGRPAVSLRDITARFSGQQPTLPMADTVDPLDWLFGESQEKQPSQRDLPRRTGPSAGLWGPHRQMDSSKPMGAPRGRLCEARMPGHSLARPPQDGQQSSDLRSWTFGQSAQAMASRHRPRPSSVLRTLYSHLPVIHEL
With B1, the binding entry is listed as “binds”.
